Experimental data published in article PMC10443802 (JCI Insight, 2023).
Where a name gives a salt, the structure may show the parent alone. Where a SMILES comes first, the peptide text is derived from it. [ ]: non-standard residue; d: D form. Hyp = O=C(O)[C@@H]1C[C@@H](O)CN1

Tested on: OATP1B2
Assay: Untargeted metabolomics of plasma and DRG, WT vs OATP1B2-deficient mice
Type: in vivo, mouse
Details: untargeted metabolomics, WT vs OATP1B2-deficient mice
[1] = supplement sheet "Figure 5B" (volcano plot)
[2] = Figure 5B source data (volcano plot), log2 fold change of metabolite level

SMILES	Log2FoldChange (supplement sheet "Figure 5B")	Log2FoldChange (sheet "Figure 5C")	Log2FoldChange [1]	Log2FoldChange [2]
Cn1cnc(C[C@H](N)C(=O)O)c1 [1-methylhistidine]	-0.1047	0.3219		
CCO[C@@H]1O[C@H](CO)[C@@H](O)[C@H](O)[C@H]1O [ethyl beta-glucopyranoside]		0.05658	0.4957	
C/C=C/C(=O)NCC(=O)O [2-butenoylglycine]	0.111			
CC(=O)Nc1ccccc1OS(=O)(=O)O [2-acetamidophenol sulfate]			0.2265	
Cn1cnc2c(ncn2[C@@H]2O[C@H](CO)[C@@H](O)[C@H]2O)c1=O [N1-methylinosine]		0.546	0.275	
CC(C)C[C@H](N)C(=O)O [leucine]	-0.0145	0.09761		
CCCCC/C=C\C/C=C\C/C=C\C/C=C\CCCC(=O)O[C@H](COC(=O)CCCCCCC/C=C\CCCCCCCC)COP(=O)(O)OC1C(O)C(O)C(O)C(O)C1O (stereo partly drawn) [1-oleoyl-2-arachidonoyl-GPI (18:1/20:4)*]		-0.415	1.0072	
CCCCCCCCC=CCCCCCCCC(=O)OC(COC(=O)CCCCCCCCCCCCCCCCC)COP(=O)(O)OCC(O)CO (stereo not drawn) [1-stearoyl-2-oleoyl-GPG (18:0/18:1)]			0.585	
C[S+]([O-])CC[C@H](N)C(=O)O (stereo partly drawn) [methionine sulfoxide]		0.08406	0.275	
Nc1nc2c(ncn2[C@@H]2O[C@H](CO)[C@@H](O)[C@H]2OP(=O)(O)O)c(=O)[nH]1 [guanosine 2'-monophosphate (2'-GMP)*]		0.251		
CCCCC/C=C\C/C=C\C/C=C\C/C=C\CCCC(=O)OC[C@@H](O)COP(=O)([O-])OCC[N+](C)(C)C [1-arachidonoyl-GPC (20:4n6)*]		0.4222	0.7049	
CCCC/C=C\CCCCCCCC(=O)O[C@H](CC(=O)[O-])C[N+](C)(C)C [myristoleoylcarnitine (C14:1)*]			0.433	
CCCCCCCCCCCCCC/C=C\OC[C@@H](O)COP(=O)(O)OCCN [1-(1-enyl-palmitoyl)-GPE (P-16:0)*]		0.275	0.84	
CC(=O)Nc1ccn([C@@H]2O[C@H](CO)[C@@H](O)[C@H]2O)c(=O)n1 [N4-acetylcytidine]		-0.1681	0.4436	
CCCCCCCCCCCCC/C=C/[C@@H](O)[C@H](COP(=O)([O-])OCC[N+](C)(C)C)NC(=O)CCCCCCCCCCCCCCC [palmitoyl sphingomyelin (d18:1/16:0)]	0.09761	-0.152		
CCCCC/C=C\C/C=C\C/C=C\C/C=C\CCCC(=O)O[C@H](COC(=O)CCCCCCCCCCCCCCCCC)COP(=O)(O)OC[C@H](N)C(=O)O	0.02857	-0.3219		
CCCC1CC1CC(=O)OC(CC(=O)[O-])C[N+](C)(C)C (stereo not drawn) [cis-3,4-methyleneheptanoylcarnitine]	0.1763			
CC[C@H](C)[C@H](N)C(=O)NCC(=O)O [isoleucylglycine] (H-Ile-Gly-OH)		0.251		
O=C(O)CCCC(=O)O [glutarate (C5-DC)]		-0.074	0.251	
OC[C@H]1OC(O)[C@H](O)[C@@H](O)[C@@H]1O (stereo partly drawn) [glucose]	0.09761			
O=C(O)[C@H]1OC(O)[C@H](O)[C@@H](O)[C@@H]1O (mixture of isomers) [glucuronate]			1.664	
O=C(O)Cc1cnc[nH]1 [4-imidazoleacetate]			0.4751	
Cn1ccc(=O)c(C(N)=O)c1 [N1-Methyl-4-pyridone-3-carboxamide]				-0.2515

SMILES	Log2FoldChange (supplement sheet "Figure 5B")	Log2FoldChange (sheet "Figure 5C")	Log2FoldChange [1]	Log2FoldChange [2]
CCCCCCCC/C=C\CCCCCCCC(=O)O[C@H](COC(=O)CCCCCCCCCCCCCCC)COP(=O)(O)OC1[C@H](O)[C@H](O)C(O)[C@H](O)[C@H]1O (stereo partly drawn) [1-palmitoyl-2-oleoyl-GPI (16:0/18:1)*]			0.2869	
COc1cc(/C=C/C(=O)O)ccc1OS(=O)(=O)O [ferulic acid 4-sulfate]			0.3219	
CCCCCCCCCCCCC/C=C/[C@@H](O)[C@@H](N)COP(=O)(O)O [sphingosine 1-phosphate]				-0.1844
C[C@H](CCC(=O)NCCS(=O)(=O)O)[C@H]1CC[C@H]2[C@@H]3C[C@H](O)[C@@H]4C[C@H](O)CC[C@]4(C)[C@H]3CC[C@]12C [taurohyodeoxycholic acid]			1.281	
CCCCC/C=C\C/C=C\C/C=C\C/C=C\CCCC(=O)O[C@H](CO/C=C\CCCCCCCCCCCCCC)COP(=O)(O)OCCN		-0.2009	0.4222	
C[C@H](CCC(=O)O)[C@H]1CC[C@H]2[C@@H]3C[C@@H](O)[C@@H]4C[C@H](O)CC[C@]4(C)[C@H]3CC[C@]12C [6-beta-hydroxylithocholate]			3.716	
CCCCCCCCCCCCCCC[C@@H](O)[C@@H](N)COP(=O)(O)O [sphinganine-1-phosphate]				-0.2515
CCCCCCCCCCCCCCCC(=O)OC[C@@H](O)COP(=O)(O)OCCN [1-palmitoyl-GPE (16:0)]		0.111	0.7908	
C[C@H](CCC(=O)O[C@@H]1O[C@H](C(=O)O)[C@@H](O)[C@H](O)[C@H]1O)[C@H]1CC[C@H]2[C@@H]3[C@H](O)C[C@@H]4C[C@H](O)CC[C@]4(C)[C@H]3CC[C@]12C [CDCA 24-G]			6.614	
Cc1ncc(CO)c(C=O)c1O [pyridoxal]		0.189	0.5558	
Oc1nc(O)c2nc(O)[nH]c2n1 [urate]		0.2869	0.2265	
CC[C@H](C)C(=O)C(=O)O [3-methyl-2-oxovalerate]		-0.074		-0.2176
N[C@@H](CCC(=O)N[C@@H](Cc1ccccc1)C(=O)O)C(=O)O [gamma-glutamylphenylalanine]	0.1763	0.09761		
NCCCCC(=O)O [5-aminovalerate]				-0.5995
CCC/C=C\CCCCCCCC/C=C/C(O)C(CO)NC(=O)CCCCCCCCCCCCCCCCCCCCC (stereo not drawn) [N-behenoyl-sphingadienine (d18:2/22:0)*]				-0.5564
CCC(C(=O)O)C(=O)O [ethylmalonate]			0.2265	
COC1=C(O)[C@@H]([C@@H](O)CO)OC1=O [2-O-methylascorbic acid]		0		
CCCCCCCCCCCCC/C=C/[C@@H](O)[C@H](COP(=O)([O-])OCC[N+](C)(C)C)NC(=O)CCCCCCCCCCCCCCCCCCCCCCC [lignoceroyl sphingomyelin (d18:1/24:0)]	0	-0.7612		
CCCCC/C=C\C/C=C\CCCCCCCC(=O)OC[C@@H](O)COP(=O)(O)OCC(O)CO (stereo partly drawn) [1-linoleoyl-GPG (18:2)*]		0.7225	1.891	
CC[C@H](C)[C@H](N)C(=O)N1C[C@H](O)C[C@H]1C(=O)O [isoleucylhydroxyproline*] (H-Ile-[Hyp]-OH)	0.1375			
CCCCCCCCCCCCC/C=C/C(O)C(CO)NC(=O)CCCCCCCCCCCCCCCCC (stereo not drawn) [N-stearoyl-sphingosine (d18:1/18:0)*]	-0.1681	-0.6897		
CC(C)C[C@H](NC(=O)[C@@H](N)CCCCN)C(=O)O [lysylleucine] (H-Lys-Leu-OH)		0.3219		
